# Some of the results follow.
# Protein sequences, listed by entry. Tags and fused reporters are not part of them. Lines headed by an entry give the natural chain unless they say otherwise; changes in a name come on top.
# UniProt Q01167: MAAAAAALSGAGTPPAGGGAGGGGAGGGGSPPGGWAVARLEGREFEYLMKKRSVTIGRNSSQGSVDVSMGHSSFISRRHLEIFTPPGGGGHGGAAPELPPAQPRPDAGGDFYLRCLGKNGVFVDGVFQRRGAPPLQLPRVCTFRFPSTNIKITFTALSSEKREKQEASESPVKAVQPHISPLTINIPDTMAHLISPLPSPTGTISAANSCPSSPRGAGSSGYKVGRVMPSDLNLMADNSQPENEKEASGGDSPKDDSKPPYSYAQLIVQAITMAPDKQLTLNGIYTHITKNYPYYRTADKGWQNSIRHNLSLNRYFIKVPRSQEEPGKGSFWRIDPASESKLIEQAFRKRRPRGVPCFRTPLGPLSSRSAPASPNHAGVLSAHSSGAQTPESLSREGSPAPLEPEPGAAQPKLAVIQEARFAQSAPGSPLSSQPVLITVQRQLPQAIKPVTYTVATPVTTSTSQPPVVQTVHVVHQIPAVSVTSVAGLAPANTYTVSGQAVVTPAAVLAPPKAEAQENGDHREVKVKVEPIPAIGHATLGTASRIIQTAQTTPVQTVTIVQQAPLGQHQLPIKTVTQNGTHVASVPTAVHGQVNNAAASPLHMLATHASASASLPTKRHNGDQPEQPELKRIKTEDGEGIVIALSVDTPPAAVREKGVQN
# UniProt Q9BQS8: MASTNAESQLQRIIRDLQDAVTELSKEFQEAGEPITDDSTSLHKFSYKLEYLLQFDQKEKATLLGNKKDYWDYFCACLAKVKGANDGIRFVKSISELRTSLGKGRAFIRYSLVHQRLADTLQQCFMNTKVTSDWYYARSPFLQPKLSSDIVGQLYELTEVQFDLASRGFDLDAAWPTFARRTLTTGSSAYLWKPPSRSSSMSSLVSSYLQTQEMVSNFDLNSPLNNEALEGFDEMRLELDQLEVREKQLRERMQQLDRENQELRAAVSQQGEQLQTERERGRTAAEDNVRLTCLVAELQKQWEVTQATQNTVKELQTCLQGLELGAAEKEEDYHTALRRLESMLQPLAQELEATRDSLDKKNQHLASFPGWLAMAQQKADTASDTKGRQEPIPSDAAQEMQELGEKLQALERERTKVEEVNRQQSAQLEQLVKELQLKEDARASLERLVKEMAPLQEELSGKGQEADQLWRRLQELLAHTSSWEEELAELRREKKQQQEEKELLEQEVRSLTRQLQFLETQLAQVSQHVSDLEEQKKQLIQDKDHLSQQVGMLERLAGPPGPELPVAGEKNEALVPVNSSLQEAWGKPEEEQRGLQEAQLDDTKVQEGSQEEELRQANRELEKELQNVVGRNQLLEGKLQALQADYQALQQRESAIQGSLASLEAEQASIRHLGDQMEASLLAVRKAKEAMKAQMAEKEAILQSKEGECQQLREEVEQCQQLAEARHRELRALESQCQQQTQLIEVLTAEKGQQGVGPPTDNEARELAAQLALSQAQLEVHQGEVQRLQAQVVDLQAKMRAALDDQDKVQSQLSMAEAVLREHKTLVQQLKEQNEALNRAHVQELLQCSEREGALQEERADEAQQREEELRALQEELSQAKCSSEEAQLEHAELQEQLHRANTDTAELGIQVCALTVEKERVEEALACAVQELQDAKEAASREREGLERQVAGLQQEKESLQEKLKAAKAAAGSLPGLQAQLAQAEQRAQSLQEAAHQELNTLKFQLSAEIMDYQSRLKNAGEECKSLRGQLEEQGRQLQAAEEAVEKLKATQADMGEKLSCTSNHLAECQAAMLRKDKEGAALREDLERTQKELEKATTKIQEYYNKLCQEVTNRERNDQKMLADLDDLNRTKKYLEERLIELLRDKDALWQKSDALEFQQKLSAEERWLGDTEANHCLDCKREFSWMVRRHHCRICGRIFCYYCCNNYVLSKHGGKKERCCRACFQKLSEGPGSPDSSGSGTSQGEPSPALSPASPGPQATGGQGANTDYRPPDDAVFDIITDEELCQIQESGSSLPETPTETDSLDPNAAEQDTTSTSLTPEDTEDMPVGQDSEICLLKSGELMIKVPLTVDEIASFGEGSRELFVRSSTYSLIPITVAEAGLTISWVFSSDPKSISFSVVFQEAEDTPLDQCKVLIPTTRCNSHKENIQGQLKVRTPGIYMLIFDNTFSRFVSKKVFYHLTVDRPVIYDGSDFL
# UniProt Q14376: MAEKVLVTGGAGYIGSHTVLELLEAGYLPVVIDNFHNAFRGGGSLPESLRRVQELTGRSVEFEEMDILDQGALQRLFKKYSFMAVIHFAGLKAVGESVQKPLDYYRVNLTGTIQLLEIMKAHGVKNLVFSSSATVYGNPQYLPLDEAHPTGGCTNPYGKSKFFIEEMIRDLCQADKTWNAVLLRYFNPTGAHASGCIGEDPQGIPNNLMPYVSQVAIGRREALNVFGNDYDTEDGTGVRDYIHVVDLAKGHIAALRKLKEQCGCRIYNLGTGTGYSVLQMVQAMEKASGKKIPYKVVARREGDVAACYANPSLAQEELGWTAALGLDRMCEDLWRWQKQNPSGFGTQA
# UniProt P54803: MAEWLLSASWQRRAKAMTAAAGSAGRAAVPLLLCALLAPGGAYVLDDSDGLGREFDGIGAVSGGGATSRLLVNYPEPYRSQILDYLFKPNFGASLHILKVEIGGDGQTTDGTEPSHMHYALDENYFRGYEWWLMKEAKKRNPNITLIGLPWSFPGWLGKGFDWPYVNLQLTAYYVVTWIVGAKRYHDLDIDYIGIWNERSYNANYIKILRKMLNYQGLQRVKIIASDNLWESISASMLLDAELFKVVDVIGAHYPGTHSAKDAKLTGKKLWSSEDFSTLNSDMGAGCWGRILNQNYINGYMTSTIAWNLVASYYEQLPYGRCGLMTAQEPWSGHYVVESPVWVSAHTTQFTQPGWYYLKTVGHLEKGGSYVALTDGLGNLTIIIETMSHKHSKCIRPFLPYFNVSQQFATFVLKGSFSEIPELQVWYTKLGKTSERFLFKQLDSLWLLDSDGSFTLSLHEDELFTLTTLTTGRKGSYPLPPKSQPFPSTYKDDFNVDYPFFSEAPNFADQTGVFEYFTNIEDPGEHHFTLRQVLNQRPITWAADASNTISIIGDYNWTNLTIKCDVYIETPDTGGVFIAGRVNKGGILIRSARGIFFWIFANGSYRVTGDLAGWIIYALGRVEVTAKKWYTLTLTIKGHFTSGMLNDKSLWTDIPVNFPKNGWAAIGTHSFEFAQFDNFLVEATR
# UniProt Q92947: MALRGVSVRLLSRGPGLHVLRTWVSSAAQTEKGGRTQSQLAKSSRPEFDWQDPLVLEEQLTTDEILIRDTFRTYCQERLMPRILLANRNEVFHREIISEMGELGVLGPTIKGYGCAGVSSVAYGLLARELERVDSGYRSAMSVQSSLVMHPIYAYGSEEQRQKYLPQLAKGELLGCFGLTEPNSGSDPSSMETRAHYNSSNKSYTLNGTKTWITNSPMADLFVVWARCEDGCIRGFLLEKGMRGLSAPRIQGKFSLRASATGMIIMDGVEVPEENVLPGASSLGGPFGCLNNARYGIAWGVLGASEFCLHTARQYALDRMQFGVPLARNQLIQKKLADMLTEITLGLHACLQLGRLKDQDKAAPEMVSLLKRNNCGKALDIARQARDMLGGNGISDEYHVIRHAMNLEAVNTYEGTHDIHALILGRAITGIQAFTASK
# UniProt Q7Z7M9: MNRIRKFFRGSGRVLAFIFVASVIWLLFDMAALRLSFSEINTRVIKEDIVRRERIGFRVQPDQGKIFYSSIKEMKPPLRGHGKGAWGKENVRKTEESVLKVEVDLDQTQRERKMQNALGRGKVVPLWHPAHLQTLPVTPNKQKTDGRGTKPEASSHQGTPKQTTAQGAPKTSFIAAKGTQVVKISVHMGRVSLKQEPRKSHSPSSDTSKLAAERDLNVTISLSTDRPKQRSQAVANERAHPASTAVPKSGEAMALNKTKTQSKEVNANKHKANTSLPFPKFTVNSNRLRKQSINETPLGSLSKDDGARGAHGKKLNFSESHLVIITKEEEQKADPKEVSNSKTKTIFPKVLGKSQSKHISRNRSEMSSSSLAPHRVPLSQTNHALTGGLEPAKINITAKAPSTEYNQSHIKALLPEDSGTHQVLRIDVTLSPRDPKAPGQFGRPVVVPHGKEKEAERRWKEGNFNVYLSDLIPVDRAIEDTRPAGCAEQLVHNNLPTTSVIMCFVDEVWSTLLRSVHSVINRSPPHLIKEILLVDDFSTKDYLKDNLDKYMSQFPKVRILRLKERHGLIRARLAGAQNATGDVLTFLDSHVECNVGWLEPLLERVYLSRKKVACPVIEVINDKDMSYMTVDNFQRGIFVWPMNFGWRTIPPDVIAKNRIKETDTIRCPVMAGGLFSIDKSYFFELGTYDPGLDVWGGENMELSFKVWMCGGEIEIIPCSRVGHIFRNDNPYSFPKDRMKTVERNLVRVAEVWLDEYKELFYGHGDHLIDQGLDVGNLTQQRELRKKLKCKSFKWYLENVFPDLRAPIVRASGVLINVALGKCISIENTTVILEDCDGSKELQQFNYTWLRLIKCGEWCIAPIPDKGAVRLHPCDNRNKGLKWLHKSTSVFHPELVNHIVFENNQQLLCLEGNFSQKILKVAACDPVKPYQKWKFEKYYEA
# UniProt Q9C0B1, whole entry, looked up: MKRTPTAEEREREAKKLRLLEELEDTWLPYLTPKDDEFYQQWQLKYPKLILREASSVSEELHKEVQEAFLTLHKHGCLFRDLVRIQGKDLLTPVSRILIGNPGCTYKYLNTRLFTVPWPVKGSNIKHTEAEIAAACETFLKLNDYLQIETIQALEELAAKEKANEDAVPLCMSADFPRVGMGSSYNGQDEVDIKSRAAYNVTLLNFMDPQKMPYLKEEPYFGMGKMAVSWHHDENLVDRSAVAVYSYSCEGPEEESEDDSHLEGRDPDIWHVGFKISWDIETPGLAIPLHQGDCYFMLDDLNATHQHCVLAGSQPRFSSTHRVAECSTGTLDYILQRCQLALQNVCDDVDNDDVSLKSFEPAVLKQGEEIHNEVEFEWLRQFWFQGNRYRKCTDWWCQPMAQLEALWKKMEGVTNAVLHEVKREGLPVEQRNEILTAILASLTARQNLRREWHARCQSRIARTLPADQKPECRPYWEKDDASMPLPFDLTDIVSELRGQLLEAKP
# UniProt Q9UQC2, whole entry, looked up: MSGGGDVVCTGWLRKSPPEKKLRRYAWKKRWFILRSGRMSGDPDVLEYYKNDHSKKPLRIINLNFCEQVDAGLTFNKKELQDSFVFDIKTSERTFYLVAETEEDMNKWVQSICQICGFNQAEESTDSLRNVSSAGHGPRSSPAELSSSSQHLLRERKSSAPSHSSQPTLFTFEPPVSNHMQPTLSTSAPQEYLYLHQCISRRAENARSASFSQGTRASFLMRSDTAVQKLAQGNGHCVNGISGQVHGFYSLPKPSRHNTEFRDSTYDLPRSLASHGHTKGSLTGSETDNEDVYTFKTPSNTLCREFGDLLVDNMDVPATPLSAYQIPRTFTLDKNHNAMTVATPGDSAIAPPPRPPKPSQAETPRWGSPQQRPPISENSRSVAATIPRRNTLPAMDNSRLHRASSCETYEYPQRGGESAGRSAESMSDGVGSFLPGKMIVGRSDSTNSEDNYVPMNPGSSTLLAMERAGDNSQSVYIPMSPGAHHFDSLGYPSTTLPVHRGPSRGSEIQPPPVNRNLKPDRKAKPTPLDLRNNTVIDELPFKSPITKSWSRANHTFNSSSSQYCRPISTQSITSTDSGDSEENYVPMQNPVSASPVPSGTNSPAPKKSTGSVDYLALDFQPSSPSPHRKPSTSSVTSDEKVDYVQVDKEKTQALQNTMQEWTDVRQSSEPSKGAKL
# UniProt P48506: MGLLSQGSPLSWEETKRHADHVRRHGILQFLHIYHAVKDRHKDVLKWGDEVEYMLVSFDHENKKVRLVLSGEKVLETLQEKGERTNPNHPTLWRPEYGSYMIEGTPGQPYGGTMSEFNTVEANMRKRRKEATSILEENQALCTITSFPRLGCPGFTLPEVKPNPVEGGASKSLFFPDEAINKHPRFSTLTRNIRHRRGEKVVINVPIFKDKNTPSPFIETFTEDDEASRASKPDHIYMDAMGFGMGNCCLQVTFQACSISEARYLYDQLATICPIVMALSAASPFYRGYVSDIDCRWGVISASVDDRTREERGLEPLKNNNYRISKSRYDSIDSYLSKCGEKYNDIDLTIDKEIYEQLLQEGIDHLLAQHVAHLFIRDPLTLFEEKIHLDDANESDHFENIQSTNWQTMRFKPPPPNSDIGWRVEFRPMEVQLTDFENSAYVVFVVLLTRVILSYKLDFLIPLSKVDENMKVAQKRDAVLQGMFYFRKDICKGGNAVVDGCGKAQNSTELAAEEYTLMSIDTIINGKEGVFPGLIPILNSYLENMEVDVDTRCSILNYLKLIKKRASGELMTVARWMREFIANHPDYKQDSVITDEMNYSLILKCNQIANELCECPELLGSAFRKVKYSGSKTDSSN
# UniProt P02792: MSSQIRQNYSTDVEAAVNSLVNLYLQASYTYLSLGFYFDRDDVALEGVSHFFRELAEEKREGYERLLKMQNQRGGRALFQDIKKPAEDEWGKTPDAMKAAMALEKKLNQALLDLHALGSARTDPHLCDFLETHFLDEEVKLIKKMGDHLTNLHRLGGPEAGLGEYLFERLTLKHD
# Legend:
# Assay in all cases: log2 fold change, soluble protein after heating vs DMSO (PISA); higher = thermal stabilisation; K562 lysate, 10 uM; active = over 0.2 and 3.5 SD of the protein, either way, in both replicates (recomputed)
# vemurafenib = compound: CCCS(=O)(=O)Nc1ccc(F)c(C(=O)c2c[nH]c3ncc(-c4ccc(Cl)cc4)cc23)c1F [vemurafenib]
# Summary of the method: (§1)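 Quantification was by TMTpro 16plex LC-MS/MS with equalised channel sums, applied to the supernatant after 21,000xg for 90 min. Samples were crude K562 extract at 1 mg/mL protein in PBS pH 7.4 with 1 mM MgCl2, treated with 10 μM compound for 30 min, heated for 3 min across 48°C-58°C, pooled and brought to 0.5% NP-40 at 4°C. Values are log-two fold changes in thermal stability relative to solvent controls, from duplicates.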
# [1] = compound: CCCS(=O)(=O)Nc1ccc(F)c(C(=O)c2c[nH]c3ncc(Cl)cc23)c1F
# Summary of the method: as §1
# barasertib = compound: CCN(CCCOc1ccc2c(Nc3cc(CC(=O)Nc4cccc(F)c4)[nH]n3)ncnc2c1)CCOP(=O)(O)O [barasertib]
# Summary of the method: as §1
# [2] = compound: CC[C@@H]1C(=O)N(C)c2cnc(Nc3ccc(C(=O)NC4CCN(C)CC4)cc3OC)nc2N1C1CCCC1
# Summary of the method: as §1
# volasertib = compound: CC[C@@H]1C(=O)N(C)c2cnc(Nc3ccc(C(=O)N[C@H]4CC[C@H](N5CCN(CC6CC6)CC5)CC4)cc3OC)nc2N1C(C)C [volasertib]
# Summary of the method: as §1
# [3] = compound: CCn1c(C(=O)N(C2CC2)C2CC2)cc2c3c(ncn3C)c(Nc3cc(C)n(C)n3)nc21
# Summary of the method: as §1
# [4] = compound: CCn1cc(-c2ccnc3[nH]c(-c4cccc(CN(C)C)c4)cc23)c(-c2ccc(NC(=O)N(C)C)cc2)n1
# Summary of the method: as §1
# [5] = compound: CN1CCC(CNc2ccc3ncc(-c4cccc(OC(F)(F)F)c4)n3n2)CC1
# Summary of the method: as §1
# saracatinib = compound: CN1CCN(CCOc2cc(OC3CCOCC3)c3c(Nc4c(Cl)ccc5c4OCO5)ncnc3c2)CC1 [saracatinib]
# Summary of the method: as §1
# sotrastaurin = compound: CN1CCN(c2nc(C3=C(c4c[nH]c5ccccc45)C(=O)NC3=O)c3ccccc3n2)CC1 [sotrastaurin]
# Summary of the method: as §1
Target,log2 fold change (vemurafenib),log2 fold change [1],log2 fold change (barasertib),log2 fold change [2],log2 fold change (volasertib),log2 fold change [3],log2 fold change [4],log2 fold change [5],log2 fold change (saracatinib),log2 fold change (sotrastaurin)
FXN (UniProt Q16595),inactive: -0.002,inactive: -0.041,inactive: 0.151,inactive: 0.067,inactive: 0.055,inactive: 0.019,inactive: 0.167,inactive: -0.136,inactive: 0.03,inactive: -0.019
GDPD1 (UniProt Q8N9F7),inactive: 0.116,inactive: 0.055,inactive: -0.005,inactive: 0.041,inactive: -0.008,inactive: 0.004,inactive: 0.074,inactive: -0.032,inactive: -0.023,inactive: 0.005
GAGE5 (UniProt Q13069),inactive: 0.018,inactive: -0.115,inactive: 0.171,inactive: 0.009,inactive: 0.118,inactive: -0.018,inactive: -0.095,inactive: -0.037,inactive: 0.008,inactive: 0.048
GAB1 isoform 2 (UniProt Q13480),inactive: 0.074,inactive: 0.035,inactive: -0.066,inactive: 0.12,inactive: -0.014,inactive: -0.058,inactive: -0.134,inactive: 0.089,inactive: 0.034,inactive: -0.008
FOXK2 (UniProt Q01167),inactive: 0,inactive: -0.004,inactive: 0.041,inactive: 0.066,inactive: 0.003,inactive: -0.028,inactive: 0.079,inactive: 0.061,inactive: 0.02,inactive: 0.034
FYCO1 isoform 4 (UniProt Q9BQS8),inactive: 0.024,inactive: 0.019,inactive: 0.045,inactive: 0.027,inactive: -0.004,inactive: 0.031,inactive: -0.104,inactive: 0.063,inactive: 0.04,inactive: 0
GATAD2A isoform 3 (UniProt Q86YP4),inactive: -0.014,inactive: 0.019,inactive: 0.008,inactive: 0.012,inactive: -0.014,inactive: -0.004,inactive: -0.058,inactive: 0.022,inactive: 0.022,inactive: -0.002
GAK (UniProt O14976),inactive: -0.167,inactive: -0.166,inactive: 0.106,inactive: 0.361,inactive: -0.017,inactive: -0.035,inactive: -0.083,inactive: 0.442,inactive: 0.485,inactive: 0.082
GDPGP1 (UniProt Q6ZNW5),inactive: 0.005,inactive: 0.013,inactive: -0.037,inactive: -0.063,inactive: -0.031,inactive: -0.027,inactive: -0.165,inactive: 0.06,inactive: -0.033,inactive: 0.068
GET4 (UniProt Q7L5D6),inactive: 0.041,inactive: 0.031,inactive: 0.027,inactive: -0.012,inactive: -0.049,inactive: 0.021,inactive: 0.029,inactive: -0.124,inactive: 0.076,inactive: 0.058
GALE (UniProt Q14376),inactive: -0.028,inactive: -0.015,inactive: -0.006,inactive: -0.037,inactive: -0.086,inactive: 0.065,inactive: -0.081,inactive: -0.002,inactive: -0.026,inactive: 0.114
GALC (UniProt P54803),inactive: -0.054,inactive: 0.021,inactive: 0.055,inactive: 0.035,inactive: 0.021,inactive: -0.024,inactive: -0.13,inactive: 0.092,inactive: 0.05,inactive: 0
GCN1 (UniProt Q92616),inactive: 0.025,inactive: 0.004,inactive: 0.061,inactive: -0.107,inactive: -0.084,inactive: 0.082,inactive: -0.05,inactive: -0.07,inactive: 0.015,inactive: -0.006
GCDH (UniProt Q92947),inactive: 0.031,inactive: 0.025,inactive: -0.054,inactive: 0.002,inactive: 0.022,inactive: -0.003,inactive: -0.07,inactive: -0.077,inactive: -0.041,inactive: -0.041
FUS (UniProt P35637),inactive: -0.017,inactive: 0.015,inactive: -0.02,inactive: 0.033,inactive: -0.008,inactive: -0.051,inactive: 0.157,inactive: -0.079,inactive: -0.01,inactive: -0.005
GALM (UniProt Q96C23),inactive: 0.007,inactive: 0.016,inactive: -0.018,inactive: -0.017,inactive: -0.01,inactive: -0.004,inactive: 0,inactive: 0.012,inactive: 0.018,inactive: 0.01
FOXO3 (UniProt O43524),inactive: 0.043,inactive: 0.077,inactive: 0.034,inactive: 0.162,inactive: 0.118,inactive: -0.038,inactive: -0.058,inactive: 0.01,inactive: 0.01,inactive: 0.02
GFOD2 (UniProt Q3B7J2),inactive: 0.176,inactive: 0.029,inactive: -0.001,inactive: -0.197,inactive: 0.055,inactive: 0.135,inactive: -0.065,inactive: 0.235,inactive: -0.129,–
GFM2 (UniProt Q969S9),inactive: 0.021,inactive: -0.064,inactive: -0.115,inactive: 0.018,inactive: 0.148,inactive: 0.033,inactive: -0.031,inactive: -0.06,inactive: -0.014,inactive: 0.024
GALNT5 (UniProt Q7Z7M9),inactive: 0.046,inactive: -0.011,inactive: 0.028,inactive: 0.057,inactive: 0.012,inactive: -0.039,inactive: -0.006,inactive: -0.046,inactive: 0.013,inactive: 0.021
GABPA (UniProt Q06546),inactive: 0.017,inactive: 0.016,inactive: -0.014,inactive: -0.04,inactive: -0.006,inactive: -0.028,inactive: -0.166,inactive: 0.087,inactive: -0.012,inactive: 0.006
FTO (UniProt Q9C0B1),inactive: 0.119,inactive: 0.042,inactive: 0.025,inactive: 0.014,inactive: -0.005,inactive: -0.015,inactive: -0.039,inactive: 0.015,inactive: 0.017,inactive: 0.024
GAB2 (UniProt Q9UQC2),inactive: -0.03,inactive: 0.007,inactive: -0.021,inactive: -0.019,inactive: -0.018,inactive: -0.031,inactive: -0.044,inactive: -0.01,inactive: 0.03,inactive: 0.008
GCLC (UniProt P48506),inactive: -0.029,inactive: 0.002,inactive: 0.01,inactive: -0.01,inactive: -0.027,inactive: -0.028,inactive: -0.043,inactive: -0.002,inactive: 0.018,inactive: 0.018
GART (UniProt P22102),inactive: 0.007,inactive: 0.001,inactive: 0.028,inactive: -0.066,inactive: -0.054,inactive: 0.038,inactive: 0.124,inactive: -0.013,inactive: 0.011,inactive: -0.023
FPGT (UniProt O14772),inactive: -0.008,inactive: 0.011,inactive: 0.048,inactive: -0.064,inactive: -0.018,inactive: 0.008,active: 0.415,inactive: -0.054,inactive: 0.017,inactive: -0.001
FTL (UniProt P02792),inactive: -0.063,inactive: 0.047,inactive: -0.005,inactive: 0.03,inactive: 0.06,inactive: -0.327,inactive: -0.041,inactive: 0.092,inactive: 0.058,inactive: 0.036
FUCA2 (UniProt Q9BTY2),inactive: 0.023,inactive: -0.011,inactive: -0.014,inactive: 0,inactive: 0.007,inactive: -0.001,inactive: -0.154,inactive: 0.111,inactive: -0.01,inactive: -0.028
GAPVD1 isoform 6 (UniProt Q14C86),inactive: 0.011,inactive: 0.006,inactive: 0.01,inactive: -0.077,inactive: -0.036,inactive: 0.027,inactive: 0.046,inactive: -0.083,inactive: 0.014,inactive: 0.012
GEMIN2 (UniProt O14893),inactive: 0.061,inactive: -0.017,inactive: 0.052,inactive: 0.033,inactive: 0.009,inactive: 0.011,inactive: -0.052,inactive: 0.029,inactive: 0.025,inactive: -0.045

# Copied from the list:
# log2 fold change [1] with GAK (UniProt O14976) reads inactive: -0.166
# log2 fold change (saracatinib) with FOXK2 (UniProt Q01167) reads inactive: 0.02

# — the supplement of paper PMC10849652
